Experimental data reported in the supplement of paper PMC10849652.
This is one part of the list.

The chains behind the UniProt entries cited, without tags or fusion partners. Where a name states a change or a piece, a line headed by the entry shows the natural chain unless it says otherwise.
UniProt P49821, whole entry, looked up: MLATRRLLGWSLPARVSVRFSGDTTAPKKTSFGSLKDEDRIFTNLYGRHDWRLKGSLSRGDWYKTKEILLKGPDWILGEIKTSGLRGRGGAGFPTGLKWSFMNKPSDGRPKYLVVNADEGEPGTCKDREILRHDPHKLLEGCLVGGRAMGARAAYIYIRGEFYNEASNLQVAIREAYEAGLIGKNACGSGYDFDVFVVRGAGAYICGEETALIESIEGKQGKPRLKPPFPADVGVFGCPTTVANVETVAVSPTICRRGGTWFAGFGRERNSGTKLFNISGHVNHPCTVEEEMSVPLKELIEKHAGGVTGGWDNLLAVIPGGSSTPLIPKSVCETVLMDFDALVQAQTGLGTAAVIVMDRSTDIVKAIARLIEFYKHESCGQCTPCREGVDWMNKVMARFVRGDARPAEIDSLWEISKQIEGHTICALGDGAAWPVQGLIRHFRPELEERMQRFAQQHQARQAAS
UniProt O14777: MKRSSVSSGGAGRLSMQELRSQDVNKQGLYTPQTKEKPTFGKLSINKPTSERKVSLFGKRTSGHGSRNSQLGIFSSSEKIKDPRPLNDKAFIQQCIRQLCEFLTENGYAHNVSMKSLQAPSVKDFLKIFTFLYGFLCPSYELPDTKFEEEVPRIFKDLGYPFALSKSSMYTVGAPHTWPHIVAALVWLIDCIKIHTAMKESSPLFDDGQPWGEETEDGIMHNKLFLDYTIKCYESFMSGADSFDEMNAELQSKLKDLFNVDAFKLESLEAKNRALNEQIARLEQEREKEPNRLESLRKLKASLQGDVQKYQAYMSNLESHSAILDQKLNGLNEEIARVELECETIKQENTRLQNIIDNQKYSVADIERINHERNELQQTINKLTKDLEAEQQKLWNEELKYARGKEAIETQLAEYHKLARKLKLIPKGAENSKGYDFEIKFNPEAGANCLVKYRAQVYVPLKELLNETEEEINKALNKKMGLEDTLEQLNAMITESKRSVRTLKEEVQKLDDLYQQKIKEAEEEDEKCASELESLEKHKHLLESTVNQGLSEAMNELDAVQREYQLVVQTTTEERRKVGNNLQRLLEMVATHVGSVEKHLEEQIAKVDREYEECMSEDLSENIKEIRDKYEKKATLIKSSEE
UniProt O95168, whole entry, looked up: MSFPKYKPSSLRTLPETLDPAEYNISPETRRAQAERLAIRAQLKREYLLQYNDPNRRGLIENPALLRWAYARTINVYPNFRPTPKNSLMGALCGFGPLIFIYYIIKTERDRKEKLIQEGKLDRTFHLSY
UniProt Q14CX7, whole entry, looked up: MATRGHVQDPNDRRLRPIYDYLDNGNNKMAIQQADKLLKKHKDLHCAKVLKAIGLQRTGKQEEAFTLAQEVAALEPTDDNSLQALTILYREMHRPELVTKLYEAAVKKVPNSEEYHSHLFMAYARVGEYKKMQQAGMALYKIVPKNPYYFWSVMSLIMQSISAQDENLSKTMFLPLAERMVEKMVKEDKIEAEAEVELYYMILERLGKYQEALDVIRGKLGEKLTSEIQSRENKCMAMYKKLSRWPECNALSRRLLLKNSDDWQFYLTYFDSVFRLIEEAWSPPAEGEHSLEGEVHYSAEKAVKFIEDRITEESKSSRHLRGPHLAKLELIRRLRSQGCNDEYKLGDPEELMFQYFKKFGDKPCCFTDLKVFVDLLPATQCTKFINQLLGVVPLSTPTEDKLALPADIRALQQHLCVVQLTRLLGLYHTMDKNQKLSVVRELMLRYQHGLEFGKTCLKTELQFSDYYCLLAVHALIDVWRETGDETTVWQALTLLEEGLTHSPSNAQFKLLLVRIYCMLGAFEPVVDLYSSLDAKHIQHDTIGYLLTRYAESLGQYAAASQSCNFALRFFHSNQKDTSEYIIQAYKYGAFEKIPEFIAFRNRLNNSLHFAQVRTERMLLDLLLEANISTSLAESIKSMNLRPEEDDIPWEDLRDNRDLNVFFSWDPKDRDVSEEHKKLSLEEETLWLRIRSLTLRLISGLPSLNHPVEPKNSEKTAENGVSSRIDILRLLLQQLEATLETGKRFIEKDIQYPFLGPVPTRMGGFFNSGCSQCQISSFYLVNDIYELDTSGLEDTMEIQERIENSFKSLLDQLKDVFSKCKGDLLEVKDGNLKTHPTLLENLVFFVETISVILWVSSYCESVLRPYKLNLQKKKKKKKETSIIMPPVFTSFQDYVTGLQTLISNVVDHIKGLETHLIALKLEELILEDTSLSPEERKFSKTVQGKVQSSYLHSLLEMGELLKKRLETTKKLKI
UniProt Q96HR8: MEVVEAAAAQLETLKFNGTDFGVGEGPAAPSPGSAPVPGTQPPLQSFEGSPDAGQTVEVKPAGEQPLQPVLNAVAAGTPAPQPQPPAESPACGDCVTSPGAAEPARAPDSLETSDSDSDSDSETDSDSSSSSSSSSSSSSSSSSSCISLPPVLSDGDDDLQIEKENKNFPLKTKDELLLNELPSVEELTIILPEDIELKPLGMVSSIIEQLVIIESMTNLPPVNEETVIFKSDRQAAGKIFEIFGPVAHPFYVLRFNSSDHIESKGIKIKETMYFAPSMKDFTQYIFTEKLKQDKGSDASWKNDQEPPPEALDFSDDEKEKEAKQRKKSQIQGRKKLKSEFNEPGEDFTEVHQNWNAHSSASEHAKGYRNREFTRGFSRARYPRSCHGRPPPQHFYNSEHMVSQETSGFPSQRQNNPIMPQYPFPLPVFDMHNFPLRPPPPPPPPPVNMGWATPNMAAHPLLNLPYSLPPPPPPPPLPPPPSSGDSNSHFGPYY
UniProt Q8NCW5: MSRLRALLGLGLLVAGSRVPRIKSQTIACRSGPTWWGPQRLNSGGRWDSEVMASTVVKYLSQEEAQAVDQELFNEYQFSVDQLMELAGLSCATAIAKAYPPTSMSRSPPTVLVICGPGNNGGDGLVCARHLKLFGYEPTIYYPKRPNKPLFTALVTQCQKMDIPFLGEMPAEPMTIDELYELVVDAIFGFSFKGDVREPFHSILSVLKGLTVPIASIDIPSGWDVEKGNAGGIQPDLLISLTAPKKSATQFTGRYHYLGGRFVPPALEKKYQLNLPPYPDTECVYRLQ
UniProt O95544: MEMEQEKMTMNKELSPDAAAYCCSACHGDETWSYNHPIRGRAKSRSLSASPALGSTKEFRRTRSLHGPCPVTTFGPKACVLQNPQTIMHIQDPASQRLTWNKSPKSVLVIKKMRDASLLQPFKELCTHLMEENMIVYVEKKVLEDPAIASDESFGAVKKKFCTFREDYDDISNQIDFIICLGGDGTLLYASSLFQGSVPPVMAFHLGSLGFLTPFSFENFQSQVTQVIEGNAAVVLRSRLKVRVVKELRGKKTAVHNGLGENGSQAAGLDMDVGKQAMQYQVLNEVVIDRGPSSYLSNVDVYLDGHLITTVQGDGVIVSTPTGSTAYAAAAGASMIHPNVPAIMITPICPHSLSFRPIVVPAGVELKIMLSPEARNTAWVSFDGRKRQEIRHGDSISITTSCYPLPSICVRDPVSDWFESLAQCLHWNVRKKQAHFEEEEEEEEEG
UniProt O43920, whole entry, looked up: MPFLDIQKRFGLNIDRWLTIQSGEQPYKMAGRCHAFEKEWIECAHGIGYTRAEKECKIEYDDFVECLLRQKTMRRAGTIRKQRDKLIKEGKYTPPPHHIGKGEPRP
UniProt P12036: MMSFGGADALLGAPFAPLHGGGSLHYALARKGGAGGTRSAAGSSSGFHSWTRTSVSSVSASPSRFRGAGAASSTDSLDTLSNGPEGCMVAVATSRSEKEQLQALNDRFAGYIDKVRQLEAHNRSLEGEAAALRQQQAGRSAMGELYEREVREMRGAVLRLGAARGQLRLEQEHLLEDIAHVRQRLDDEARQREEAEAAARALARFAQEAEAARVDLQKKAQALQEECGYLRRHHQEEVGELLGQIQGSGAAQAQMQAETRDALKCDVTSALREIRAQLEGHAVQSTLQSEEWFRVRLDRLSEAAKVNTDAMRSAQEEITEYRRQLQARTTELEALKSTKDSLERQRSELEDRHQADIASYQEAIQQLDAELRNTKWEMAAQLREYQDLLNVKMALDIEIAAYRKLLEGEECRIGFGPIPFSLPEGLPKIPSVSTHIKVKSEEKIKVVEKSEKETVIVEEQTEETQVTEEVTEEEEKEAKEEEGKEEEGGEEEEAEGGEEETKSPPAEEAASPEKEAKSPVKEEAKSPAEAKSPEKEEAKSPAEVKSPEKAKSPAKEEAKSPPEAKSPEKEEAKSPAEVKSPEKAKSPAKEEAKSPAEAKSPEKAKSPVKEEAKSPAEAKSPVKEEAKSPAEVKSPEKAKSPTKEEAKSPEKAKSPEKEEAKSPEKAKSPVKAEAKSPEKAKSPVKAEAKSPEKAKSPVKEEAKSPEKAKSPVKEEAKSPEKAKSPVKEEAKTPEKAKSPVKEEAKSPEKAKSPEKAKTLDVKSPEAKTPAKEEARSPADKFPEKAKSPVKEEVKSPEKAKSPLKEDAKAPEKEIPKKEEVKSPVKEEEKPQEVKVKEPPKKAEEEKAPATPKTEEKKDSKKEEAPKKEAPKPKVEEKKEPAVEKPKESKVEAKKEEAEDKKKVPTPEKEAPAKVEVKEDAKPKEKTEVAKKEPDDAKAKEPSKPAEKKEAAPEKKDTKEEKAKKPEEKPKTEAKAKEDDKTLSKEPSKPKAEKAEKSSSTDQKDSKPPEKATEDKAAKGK
UniProt P41227: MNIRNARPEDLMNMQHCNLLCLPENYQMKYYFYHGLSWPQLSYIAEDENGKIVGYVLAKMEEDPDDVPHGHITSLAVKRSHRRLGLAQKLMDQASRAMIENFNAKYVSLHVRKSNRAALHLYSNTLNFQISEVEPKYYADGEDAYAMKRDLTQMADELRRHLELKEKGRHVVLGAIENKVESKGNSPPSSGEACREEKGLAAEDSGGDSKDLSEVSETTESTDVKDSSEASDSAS
UniProt Q9BXJ9: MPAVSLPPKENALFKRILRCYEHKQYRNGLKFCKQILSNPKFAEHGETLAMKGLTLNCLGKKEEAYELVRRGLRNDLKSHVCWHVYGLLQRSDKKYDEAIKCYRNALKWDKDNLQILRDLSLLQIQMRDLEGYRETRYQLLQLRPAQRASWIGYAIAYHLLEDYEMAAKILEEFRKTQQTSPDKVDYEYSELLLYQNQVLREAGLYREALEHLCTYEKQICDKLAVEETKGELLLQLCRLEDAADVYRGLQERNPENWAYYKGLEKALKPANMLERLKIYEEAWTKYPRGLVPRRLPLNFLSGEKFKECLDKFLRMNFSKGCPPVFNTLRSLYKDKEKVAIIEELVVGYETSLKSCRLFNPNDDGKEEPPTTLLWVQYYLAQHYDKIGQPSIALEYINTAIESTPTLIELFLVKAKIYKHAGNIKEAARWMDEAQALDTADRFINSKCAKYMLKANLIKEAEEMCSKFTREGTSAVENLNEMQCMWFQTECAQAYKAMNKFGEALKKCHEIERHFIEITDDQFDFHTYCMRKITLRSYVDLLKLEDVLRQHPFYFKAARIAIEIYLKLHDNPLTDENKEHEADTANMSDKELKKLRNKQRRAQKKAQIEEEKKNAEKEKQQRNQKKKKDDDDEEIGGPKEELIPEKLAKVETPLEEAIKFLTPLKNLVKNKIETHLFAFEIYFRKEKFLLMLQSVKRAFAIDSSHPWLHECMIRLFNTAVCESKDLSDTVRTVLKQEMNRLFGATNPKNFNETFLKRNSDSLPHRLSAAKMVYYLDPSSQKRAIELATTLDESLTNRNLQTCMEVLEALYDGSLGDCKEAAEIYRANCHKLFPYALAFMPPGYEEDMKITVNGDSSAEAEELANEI
UniProt Q9Y5N5: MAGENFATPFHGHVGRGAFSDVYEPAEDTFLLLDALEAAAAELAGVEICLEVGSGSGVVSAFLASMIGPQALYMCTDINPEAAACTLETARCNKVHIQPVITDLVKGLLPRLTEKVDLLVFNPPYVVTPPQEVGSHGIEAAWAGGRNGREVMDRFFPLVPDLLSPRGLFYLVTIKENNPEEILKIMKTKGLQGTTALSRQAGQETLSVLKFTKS
UniProt Q147X3: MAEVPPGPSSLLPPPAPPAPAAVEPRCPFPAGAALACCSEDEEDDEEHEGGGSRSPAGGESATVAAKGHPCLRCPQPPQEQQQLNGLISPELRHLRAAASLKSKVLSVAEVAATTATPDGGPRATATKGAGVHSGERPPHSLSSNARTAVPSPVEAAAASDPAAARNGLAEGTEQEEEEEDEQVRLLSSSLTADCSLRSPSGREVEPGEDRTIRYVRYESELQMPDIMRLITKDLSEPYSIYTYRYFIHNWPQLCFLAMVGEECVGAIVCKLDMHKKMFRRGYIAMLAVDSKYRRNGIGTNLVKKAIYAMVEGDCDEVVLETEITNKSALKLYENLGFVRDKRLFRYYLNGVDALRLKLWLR
UniProt Q9UJ70, whole entry, looked up: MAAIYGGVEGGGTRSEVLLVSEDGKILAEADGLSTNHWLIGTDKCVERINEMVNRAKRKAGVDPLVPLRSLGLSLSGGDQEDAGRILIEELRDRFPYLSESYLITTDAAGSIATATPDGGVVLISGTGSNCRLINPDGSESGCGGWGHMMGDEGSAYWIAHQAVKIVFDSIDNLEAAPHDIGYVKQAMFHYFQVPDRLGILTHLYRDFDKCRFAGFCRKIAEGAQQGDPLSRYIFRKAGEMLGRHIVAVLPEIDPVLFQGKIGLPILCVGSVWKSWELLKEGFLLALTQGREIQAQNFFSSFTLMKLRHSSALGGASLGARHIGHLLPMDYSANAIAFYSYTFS

Assays:
Experiment in all cases: log2 fold change, soluble protein after heating vs DMSO (PISA); higher = thermal stabilisation; K562 cells, 10 uM, 30 min; active = over 0.2 and 3.5 SD of the protein, either way, in both replicates (recomputed)
[1] = compound: NC(=O)Nc1cc(-c2cccc(F)c2)sc1C(=O)N[C@H]1CCCNC1
In short: (§1)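 Soluble protein was quantified by TMTpro 16plex LC-MS/MS after channel sums were equalised. It was obtained as the supernatant after 21,000xg for 90 min from pooled aliquots of K562 cells (2×10^6 cells/mL, 10 μM compound, 30 min) heated for 3 min across 48°C-58°C and extracted in PBS with 0.5% NP-40 at 4°C. Thermal stability values are relative to control samples and come from duplicates. They are given as log2 fold changes.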

[2] = compound: NC(=O)c1cnc(N[C@@H]2CCCC[C@@H]2N)nc1Nc1cccc(-n2nccn2)c1
In short: as §1

[3] = compound: NC1(c2ccc(-c3nc4ccn5c(=O)[nH]nc5c4cc3-c3ccccc3)cc2)CCC1
In short: as §1

[4] = compound: NCC(=O)Nc1ccc(-n2nc(C(F)(F)F)cc2-c2ccc3c(ccc4ccccc43)c2)cc1
In short: as §1

entinostat = compound: Nc1ccccc1NC(=O)c1ccc(CNC(=O)OCc2cccnc2)cc1 [entinostat]
In short: as §1

vorinostat = compound: O=C(CCCCCCC(=O)Nc1ccccc1)NO [vorinostat]
In short: as §1

citarinostat = compound: O=C(CCCCCCNC(=O)c1cnc(N(c2ccccc2)c2ccccc2Cl)nc1)NO [citarinostat]
In short: as §1

silmitasertib = compound: O=C(O)c1ccc2c(c1)nc(Nc1cccc(Cl)c1)c1ccncc12 [silmitasertib]
In short: as §1

[5] = compound: O=C1NC(=O)C(c2cnc3ccccn23)=C1c1cn2c3c(cc(F)cc13)CN(C(=O)N1CCCCC1)CC2
In short: as §1

[6] = compound: c1cc(OCCN2CCCCC2)cc(-c2n[nH]c3ccc(-c4nnc[nH]4)cc23)c1
In short: as §1

entospletinib = compound: c1cn2cc(-c3ccc4cn[nH]c4c3)nc(Nc3ccc(N4CCOCC4)cc3)c2n1 [entospletinib]
In short: as §1

Measured: log2 fold change

NAA15, A0A0B4J1W3
inactive: [1] 0.111 | [2] 0.009 | [3] -0.086 | [4] -0.066 | entinostat 0.171 | vorinostat 0.037 | citarinostat 0.021 | silmitasertib 0.007 | [5] -0.131 | [6] -0.124 | entospletinib -0.106

NCAPG2 isoform 2 (UniProt Q86XI2)
inactive: [1] 0.03 | [2] -0.08 | [3] -0.049 | [4] 0.119 | entinostat 0.054 | vorinostat 0.362 | citarinostat 0.074 | silmitasertib 0.014 | [5] 0.151 | [6] -0.132 | entospletinib 0.069

NDE1 isoform 1 (UniProt Q9NXR1)
inactive: [1] 0.05 | [2] -0.004 | [3] -0.047 | [4] 0.026 | entinostat -0.014 | vorinostat -0.024 | citarinostat 0.036 | silmitasertib 0.035 | [5] -0.01 | [6] -0.034 | entospletinib 0.02

NDUFV1 (UniProt P49821)
inactive: [1] -0.028 | [2] -0.038 | [3] -0.038 | [4] -0.022 | entinostat -0.01 | vorinostat 0.066 | citarinostat 0.042 | silmitasertib -0.028 | [5] -0.126 | [6] -0.031 | entospletinib -0.016

NDC80 (UniProt O14777)
inactive: [1] 0.016 | [2] -0.117 | [3] -0.121 | [4] 0.01 | entinostat 0.036 | vorinostat 0.049 | citarinostat -0.015 | silmitasertib 0.184 | [5] 0.359 | [6] -0.057 | entospletinib 0.255

NDUFA13 (UniProt Q9P0J0)
inactive: [1] 0.028 | [2] -0.033 | [3] -0.087 | [4] -0.089 | entinostat 0.063 | vorinostat 0.021 | citarinostat 0.007 | silmitasertib -0.004 | [5] 0.051 | [6] -0.038 | entospletinib 0.008

NANP (UniProt Q8TBE9)
inactive: [1] -0.08 | [2] -0.138 | [3] -0.108 | [4] -0.142 | entinostat 0.09 | vorinostat -0.074 | citarinostat -0.059 | silmitasertib 0.109 | [5] -0.048 | [6] -0.092 | entospletinib 0.082

NBAS (UniProt A2RRP1)
inactive: [1] 0.034 | [2] 0 | [3] -0.006 | [4] -0.028 | entinostat 0.107 | vorinostat 0.082 | citarinostat 0.057 | silmitasertib 0.079 | [5] 0.152 | [6] -0.16 | entospletinib 0.133

NCBP1 (UniProt Q09161)
inactive: [1] -0.034 | [2] -0.006 | [3] -0.076 | [4] -0.051 | entinostat 0.003 | vorinostat -0.007 | citarinostat 0.104 | silmitasertib 0.034 | [5] -0.039 | [6] -0.033 | entospletinib 0.013

NDUFS2 (UniProt O75306)
inactive: [1] 0.039 | [2] 0.009 | [3] -0.044 | [4] 0.037 | entinostat 0.043 | vorinostat 0.001 | citarinostat 0.04 | silmitasertib -0.012 | [5] -0.055 | [6] 0.007 | entospletinib -0.018

NDUFB4 (UniProt O95168)
inactive: [1] 0.003 | [2] 0.07 | [3] 0.059 | [4] 0 | entinostat 0.048 | vorinostat -0.022 | citarinostat -0.015 | silmitasertib -0.122 | [5] -0.068 | [6] -0.022 | entospletinib 0.085

NAA25 (UniProt Q14CX7)
inactive: [1] -0.012 | [2] -0.065 | [3] -0.108 | [4] -0.047 | entinostat -0.008 | vorinostat 0.04 | citarinostat 0.047 | silmitasertib -0.005 | [5] 0 | [6] -0.02 | entospletinib 0.012

NAF1 (UniProt Q96HR8)
inactive: [1] 0.026 | [2] 0.102 | [3] 0.043 | [4] 0.12 | entinostat -0.03 | vorinostat 0.008 | citarinostat -0.021 | silmitasertib -0.021 | [5] 0.054 | [6] -0.015 | entospletinib -0.011

NDUFAF3 (UniProt Q9BU61)
inactive: [1] -0.026 | [2] -0.009 | [3] -0.067 | [4] 0.113 | entinostat -0.058 | vorinostat -0.009 | citarinostat 0.05 | silmitasertib -0.007 | [5] -0.008 | [6] -0.024 | entospletinib -0.015

NAXE (UniProt Q8NCW5)
inactive: [1] 0.001 | [2] -0.007 | [3] 0.043 | [4] 0 | entinostat 0.03 | vorinostat -0.012 | citarinostat 0.013 | silmitasertib -0.029 | [5] -0.092 | [6] -0.019 | entospletinib 0.004

NADK (UniProt O95544)
inactive: [1] -0.013 | [2] -0.03 | [3] 0.004 | [4] -0.016 | entinostat -0.007 | vorinostat -0.037 | citarinostat 0.014 | silmitasertib -0.026 | [5] -0.01 | [6] -0.058 | entospletinib -0.005

NDUFS5 (UniProt O43920)
inactive: [1] -0.032 | [2] -0.044 | [3] -0.027 | [4] -0.002 | entinostat -0.026 | vorinostat 0.062 | citarinostat 0.046 | silmitasertib 0.017 | [5] 0.054 | [6] -0.012 | entospletinib 0.004

NEFH (UniProt P12036)
inactive: [1] -0.084 | [2] -0.105 | [3] -0.216 | [4] 0.108 | entinostat -0.013 | vorinostat -0.069 | citarinostat -0.044 | silmitasertib 0.119 | [5] 0.202 | [6] -0.314 | entospletinib 0.166

NCDN isoform 3 (UniProt Q9UBB6)
inactive: [1] 0.024 | [2] -0.023 | [3] -0.124 | [4] -0.017 | entinostat -0.005 | vorinostat -0.026 | citarinostat 0.026 | silmitasertib 0.15 | [5] -0.075 | [6] -0.021 | entospletinib 0.073

NAGA (UniProt P17050)
inactive: [1] 0.036 | [2] 0.016 | [3] -0.153 | [4] 0.029 | entinostat -0.055 | vorinostat 0 | citarinostat 0.104 | silmitasertib -0.018 | [5] -0.036 | [6] -0.044 | entospletinib 0.054

Copied from the results shown (6 entries):
NDUFA13 (UniProt Q9P0J0)
inactive: [1] 0.028 | [2] -0.033 | [3] -0.087 | [4] -0.089 | entinostat 0.063 | vorinostat 0.021 | citarinostat 0.007 | silmitasertib -0.004 | [5] 0.051 | [6] -0.038 | entospletinib 0.008

NANP (UniProt Q8TBE9)
inactive: [1] -0.08 | [2] -0.138 | [3] -0.108 | [4] -0.142 | entinostat 0.09 | vorinostat -0.074 | citarinostat -0.059 | silmitasertib 0.109 | [5] -0.048 | [6] -0.092 | entospletinib 0.082

NBAS (UniProt A2RRP1)
inactive: [1] 0.034 | [2] 0 | [3] -0.006 | [4] -0.028 | entinostat 0.107 | vorinostat 0.082 | citarinostat 0.057 | silmitasertib 0.079 | [5] 0.152 | [6] -0.16 | entospletinib 0.133

NCBP1 (UniProt Q09161)
inactive: [1] -0.034 | [2] -0.006 | [3] -0.076 | [4] -0.051 | entinostat 0.003 | vorinostat -0.007 | citarinostat 0.104 | silmitasertib 0.034 | [5] -0.039 | [6] -0.033 | entospletinib 0.013

NDUFS2 (UniProt O75306)
inactive: [1] 0.039 | [2] 0.009 | [3] -0.044 | [4] 0.037 | entinostat 0.043 | vorinostat 0.001 | citarinostat 0.04 | silmitasertib -0.012 | [5] -0.055 | [6] 0.007 | entospletinib -0.018

NDUFB4 (UniProt O95168)
inactive: [1] 0.003 | [2] 0.07 | [3] 0.059 | [4] 0 | entinostat 0.048 | vorinostat -0.022 | citarinostat -0.015 | silmitasertib -0.122 | [5] -0.068 | [6] -0.022 | entospletinib 0.085

Additional results follow.

NDUFA3 (UniProt O95167)
inactive: [1] 0.032 | [2] -0.009 | [3] -0.113 | [4] -0.015 | entinostat 0.084 | vorinostat -0.096 | citarinostat 0.031 | silmitasertib -0.067 | [5] -0.093 | [6] -0.025 | entospletinib 0.107

NAA10 (UniProt P41227)
inactive: [1] -0.026 | [2] 0.046 | [3] -0.022 | [4] 0.018 | entinostat -0.001 | vorinostat 0.037 | citarinostat 0.034 | silmitasertib -0.034 | [5] -0.01 | [6] -0.024 | entospletinib -0.028

NAA15 (UniProt Q9BXJ9)
inactive: [1] -0.035 | [2] -0.03 | [3] -0.046 | [4] 0 | entinostat 0.001 | vorinostat 0.055 | citarinostat 0.022 | silmitasertib -0.011 | [5] -0.059 | [6] -0.024 | entospletinib -0.049

N6AMT1 (UniProt Q9Y5N5)
inactive: [1] -0.032 | [2] -0.019 | [3] -0.02 | [4] -0.022 | entinostat 0.136 | vorinostat -0.033 | citarinostat 0.036 | silmitasertib -0.007 | [5] -0.023 | [6] 0.016 | entospletinib -0.005

NAA30 (UniProt Q147X3)
inactive: [1] 0.022 | [2] 0.043 | [3] -0.028 | [4] 0.009 | entinostat 0.003 | vorinostat 0.079 | citarinostat 0.004 | silmitasertib 0.021 | [5] -0.137 | [6] 0.008 | entospletinib 0.004

NAGK isoform 2 (UniProt Q9UJ70)
inactive: [1] -0.036 | [2] -0.017 | [3] -0.035 | [4] 0.013 | entinostat -0.046 | vorinostat -0.069 | citarinostat -0.014 | silmitasertib -0.049 | [5] -0.062 | [6] 0 | entospletinib 0.001

NAPA (UniProt P54920)
inactive: [1] 0.016 | [2] -0.013 | [3] -0.056 | [4] 0.04 | entinostat 0.009 | vorinostat 0.016 | citarinostat 0.027 | silmitasertib 0.014 | [5] -0.026 | [6] -0.05 | entospletinib -0.02
